{"sequences": {"note": "The chains behind the UniProt entries cited, without tags or fusion partners. Where a name states a change or a piece, a line headed by the entry shows the natural chain unless it says otherwise.", "UniProt Q01892": "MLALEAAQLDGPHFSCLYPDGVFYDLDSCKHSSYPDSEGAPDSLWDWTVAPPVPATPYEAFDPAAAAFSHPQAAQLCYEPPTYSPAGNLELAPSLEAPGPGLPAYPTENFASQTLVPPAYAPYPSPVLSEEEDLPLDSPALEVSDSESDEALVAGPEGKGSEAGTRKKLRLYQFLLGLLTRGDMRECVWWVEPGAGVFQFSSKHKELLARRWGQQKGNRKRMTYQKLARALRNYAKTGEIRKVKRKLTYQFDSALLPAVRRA", "UniProt Q99607": "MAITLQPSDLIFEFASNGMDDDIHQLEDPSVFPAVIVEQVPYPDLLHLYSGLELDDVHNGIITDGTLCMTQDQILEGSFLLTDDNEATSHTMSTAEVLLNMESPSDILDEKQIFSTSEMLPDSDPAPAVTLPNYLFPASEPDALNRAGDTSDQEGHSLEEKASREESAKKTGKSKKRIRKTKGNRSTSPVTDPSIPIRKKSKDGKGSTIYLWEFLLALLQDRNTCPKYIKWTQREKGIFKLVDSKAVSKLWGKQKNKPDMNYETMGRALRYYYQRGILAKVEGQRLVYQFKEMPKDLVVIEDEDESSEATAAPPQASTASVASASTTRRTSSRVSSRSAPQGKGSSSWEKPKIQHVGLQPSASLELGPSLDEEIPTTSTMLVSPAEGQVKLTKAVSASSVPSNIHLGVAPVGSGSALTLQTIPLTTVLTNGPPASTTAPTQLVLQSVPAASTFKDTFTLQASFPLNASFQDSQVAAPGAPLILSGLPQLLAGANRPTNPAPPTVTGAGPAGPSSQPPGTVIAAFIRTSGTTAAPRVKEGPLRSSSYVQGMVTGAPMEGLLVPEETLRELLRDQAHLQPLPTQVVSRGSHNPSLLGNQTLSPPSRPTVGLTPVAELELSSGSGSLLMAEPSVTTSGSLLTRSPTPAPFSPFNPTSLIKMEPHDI"}, "source": "paper PMC7862700", "note": "The entries are a selection whose mix differs from that of the whole data set. At the low end of the ranking the order means little."}
{"biological_target": "T1, FLI1 (UniProt Q01543)", "T1 sequence": "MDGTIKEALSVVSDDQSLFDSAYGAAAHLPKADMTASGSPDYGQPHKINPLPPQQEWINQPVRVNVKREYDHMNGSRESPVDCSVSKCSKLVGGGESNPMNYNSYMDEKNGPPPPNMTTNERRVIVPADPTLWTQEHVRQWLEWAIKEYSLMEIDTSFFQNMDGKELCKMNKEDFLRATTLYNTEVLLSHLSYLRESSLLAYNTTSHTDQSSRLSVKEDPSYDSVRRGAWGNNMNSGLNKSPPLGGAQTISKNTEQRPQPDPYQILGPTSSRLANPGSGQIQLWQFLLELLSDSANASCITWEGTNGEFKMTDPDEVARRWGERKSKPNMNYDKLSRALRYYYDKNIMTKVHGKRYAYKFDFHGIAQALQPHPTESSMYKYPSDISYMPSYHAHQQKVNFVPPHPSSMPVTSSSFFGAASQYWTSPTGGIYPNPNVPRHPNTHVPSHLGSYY", "assay": "DAPPL (digital affinity profiling via proximity ligation, sequencing)", "details": "10 mM Tris-HCl pH 7.5, 50 mM NaCl, 1 mM DTT, 4% glycerol, room temperature, 30 min; GST-TFs on glutathione beads, 16-mer random dsDNA library, 0.1% …; high values mean tight binding; double strand, one strand shown; scale: fold enrichment (6-mer frequency, TF over GST control)"}
{"sequence": "TAATAT", "binding signal": 1.36}
{"sequence": "TGCCTC", "binding signal": 1.39}
{"sequence": "CAAATG", "binding signal": 1.11}
{"sequence": "CTAGTA", "binding signal": 1.08}
{"sequence": "TCCCGT", "binding signal": 1.24}
{"sequence": "AGGTCT", "binding signal": 1.31}
{"sequence": "ACTGGT", "binding signal": 0.981}
{"sequence": "TTTCAC", "binding signal": 1.39}
{"sequence": "CATACA", "binding signal": 1.11}
{"sequence": "CCTATA", "binding signal": 1.35}
{"sequence": "TGCGGA", "binding signal": 1.35}
{"sequence": "GATGCG", "binding signal": 1.07}
{"sequence": "GGTTAT", "binding signal": 1.07}
{"sequence": "ATCCCA", "binding signal": 1.07}
{"sequence": "ATAATC", "binding signal": 1.17}
{"sequence": "TCCTGT", "binding signal": 1.8}
{"sequence": "GGACTT", "binding signal": 0.988}
{"sequence": "GTGCTA", "binding signal": 1.11}
{"sequence": "TCTCTC", "binding signal": 1.37}
{"sequence": "ACCCCC", "binding signal": 1.17}
{"sequence": "AAATCA", "binding signal": 1.12}
{"sequence": "ACTAGG", "binding signal": 1.03}
{"sequence": "TTTTTG", "binding signal": 1.43}
{"sequence": "ACTGTA", "binding signal": 1}
{"sequence": "ACTTCG", "binding signal": 1.38}
{"sequence": "GTATCT", "binding signal": 1.23}
{"sequence": "TCCTGA", "binding signal": 1.43}
{"sequence": "AAACAC", "binding signal": 1.25}
{"sequence": "AACGCA", "binding signal": 0.997}
{"sequence": "ACCCAA", "binding signal": 1.12}
{"sequence": "GCATTT", "binding signal": 1.38}
{"sequence": "TAGTGC", "binding signal": 1.05}
{"sequence": "TTTCCA", "binding signal": 1.37}
{"sequence": "AGTACC", "binding signal": 0.903}
{"sequence": "GTACAA", "binding signal": 1.05}
{"sequence": "CTCCGT", "binding signal": 1.32}
{"sequence": "CCCACT", "binding signal": 1.36}
{"sequence": "CATAGC", "binding signal": 0.968}
{"sequence": "CATGCA", "binding signal": 1.1}
{"biological_target": "T2, EHF (UniProt Q9NZC4)", "T2 sequence": "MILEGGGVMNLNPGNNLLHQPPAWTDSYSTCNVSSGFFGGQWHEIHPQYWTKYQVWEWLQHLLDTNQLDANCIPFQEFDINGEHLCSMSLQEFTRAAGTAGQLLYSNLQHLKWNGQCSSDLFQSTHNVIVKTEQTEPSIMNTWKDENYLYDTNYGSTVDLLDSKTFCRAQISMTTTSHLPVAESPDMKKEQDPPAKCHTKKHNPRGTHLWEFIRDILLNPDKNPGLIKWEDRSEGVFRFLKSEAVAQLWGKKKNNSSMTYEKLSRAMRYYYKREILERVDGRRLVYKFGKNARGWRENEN", "assay": "DAPPL (digital affinity profiling via proximity ligation, sequencing)", "details": "10 mM Tris-HCl pH 7.5, 50 mM NaCl, 1 mM DTT, 4% glycerol, room temperature, 30 min; GST-TFs on glutathione beads, 16-mer random dsDNA library, 0.1% …; high values mean tight binding; double strand, one strand shown; scale: fold enrichment (6-mer frequency, TF over GST control)"}
{"sequence": "TAATAT", "binding signal": 1.3}
{"sequence": "TGCCTC", "binding signal": 1.26}
{"sequence": "CAAATG", "binding signal": 1.1}
{"sequence": "CTAGTA", "binding signal": 1.08}
{"sequence": "ACTGGT", "binding signal": 0.968}
{"sequence": "TTTCAC", "binding signal": 1.3}
{"sequence": "CCTATA", "binding signal": 1.28}
{"sequence": "TGCGGA", "binding signal": 1.37}
{"sequence": "ATAATC", "binding signal": 1.14}
{"sequence": "TCCTGT", "binding signal": 1.67}
{"sequence": "GGACTT", "binding signal": 1.11}
{"sequence": "TCTCTC", "binding signal": 1.36}
{"sequence": "AAATCA", "binding signal": 1.25}
{"sequence": "TTTTTG", "binding signal": 1.27}
{"sequence": "ACTGTA", "binding signal": 1.11}
{"sequence": "GTATCT", "binding signal": 1.09}
{"sequence": "TCCTGA", "binding signal": 1.45}
{"sequence": "AACGCA", "binding signal": 1.04}
{"sequence": "ACCCAA", "binding signal": 0.979}
{"sequence": "TAGTGC", "binding signal": 0.987}
{"sequence": "AGTACC", "binding signal": 0.975}
{"sequence": "GTACAA", "binding signal": 1.26}
{"biological_target": "SPIB (UniProt Q01892)", "assay": "DAPPL (digital affinity profiling via proximity ligation, sequencing)", "details": "10 mM Tris-HCl pH 7.5, 50 mM NaCl, 1 mM DTT, 4% glycerol, room temperature, 30 min; GST-TFs on glutathione beads, 16-mer random dsDNA library, 0.1% …; high values mean tight binding; double strand, one strand shown; scale: fold enrichment (6-mer frequency, TF over GST control)"}
{"sequence": "TAATAT", "binding signal": 1.21}
{"sequence": "CAAATG", "binding signal": 1.13}
{"sequence": "CTAGTA", "binding signal": 1.1}
{"sequence": "AGGTCT", "binding signal": 1.22}
{"sequence": "CATACA", "binding signal": 1.08}
{"sequence": "CCTATA", "binding signal": 1.34}
{"sequence": "TGCGGA", "binding signal": 1.29}
{"sequence": "GATGCG", "binding signal": 1.19}
{"sequence": "GGTTAT", "binding signal": 0.999}
{"sequence": "ATCCCA", "binding signal": 1.05}
{"sequence": "ACCCCC", "binding signal": 1.21}
{"sequence": "ACTAGG", "binding signal": 0.998}
{"sequence": "ACTGTA", "binding signal": 0.963}
{"sequence": "ACTTCG", "binding signal": 1.39}
{"sequence": "GTATCT", "binding signal": 1.25}
{"sequence": "TCCTGA", "binding signal": 1.46}
{"sequence": "AAACAC", "binding signal": 1.27}
{"sequence": "ACCCAA", "binding signal": 1.08}
{"sequence": "TAGTGC", "binding signal": 1.03}
{"sequence": "TTTCCA", "binding signal": 1.39}
{"sequence": "AGTACC", "binding signal": 0.965}
{"sequence": "CTCCGT", "binding signal": 1.13}
{"sequence": "CCCACT", "binding signal": 1.26}
{"sequence": "CATAGC", "binding signal": 0.969}
{"sequence": "CATGCA", "binding signal": 1.07}
{"biological_target": "ELF4 (UniProt Q99607)", "assay": "DAPPL (digital affinity profiling via proximity ligation, sequencing)", "details": "10 mM Tris-HCl pH 7.5, 50 mM NaCl, 1 mM DTT, 4% glycerol, room temperature, 30 min; GST-TFs on glutathione beads, 16-mer random dsDNA library, 0.1% …; high values mean tight binding; double strand, one strand shown; scale: fold enrichment (6-mer frequency, TF over GST control)"}
{"sequence": "TAATAT", "binding signal": 1.28}
{"sequence": "TGCCTC", "binding signal": 1.34}
{"sequence": "CAAATG", "binding signal": 1.15}
{"sequence": "CTAGTA", "binding signal": 1.07}
{"sequence": "AGGTCT", "binding signal": 1.2}
{"sequence": "ACTGGT", "binding signal": 1.07}
{"sequence": "TTTCAC", "binding signal": 1.43}
{"sequence": "CATACA", "binding signal": 1.15}
{"sequence": "CCTATA", "binding signal": 1.29}
{"sequence": "TGCGGA", "binding signal": 1.24}
{"sequence": "GATGCG", "binding signal": 1.14}
{"sequence": "GGTTAT", "binding signal": 0.95}
{"sequence": "ATCCCA", "binding signal": 1.1}
{"sequence": "ATAATC", "binding signal": 1.13}
{"sequence": "TCCTGT", "binding signal": 1.65}
{"sequence": "GGACTT", "binding signal": 1.09}
{"sequence": "TCTCTC", "binding signal": 1.44}
{"sequence": "ACCCCC", "binding signal": 1.2}
{"sequence": "AAATCA", "binding signal": 1.24}
{"sequence": "ACTAGG", "binding signal": 0.998}
{"sequence": "TTTTTG", "binding signal": 1.45}
{"sequence": "ACTGTA", "binding signal": 0.996}
{"sequence": "ACTTCG", "binding signal": 1.47}
{"sequence": "GTATCT", "binding signal": 1.14}
{"sequence": "TCCTGA", "binding signal": 1.39}
{"sequence": "AAACAC", "binding signal": 1.34}
{"sequence": "AACGCA", "binding signal": 0.972}
{"sequence": "ACCCAA", "binding signal": 1.18}
{"sequence": "TAGTGC", "binding signal": 0.991}
{"sequence": "TTTCCA", "binding signal": 1.39}
{"sequence": "AGTACC", "binding signal": 0.963}
{"sequence": "GTACAA", "binding signal": 1.09}
{"sequence": "CTCCGT", "binding signal": 1.3}
{"sequence": "CCCACT", "binding signal": 1.43}
{"sequence": "CATAGC", "binding signal": 0.998}
{"sequence": "CATGCA", "binding signal": 1.11}
{"biological_target": "T3, ETV2 (UniProt O00321)", "T3 sequence": "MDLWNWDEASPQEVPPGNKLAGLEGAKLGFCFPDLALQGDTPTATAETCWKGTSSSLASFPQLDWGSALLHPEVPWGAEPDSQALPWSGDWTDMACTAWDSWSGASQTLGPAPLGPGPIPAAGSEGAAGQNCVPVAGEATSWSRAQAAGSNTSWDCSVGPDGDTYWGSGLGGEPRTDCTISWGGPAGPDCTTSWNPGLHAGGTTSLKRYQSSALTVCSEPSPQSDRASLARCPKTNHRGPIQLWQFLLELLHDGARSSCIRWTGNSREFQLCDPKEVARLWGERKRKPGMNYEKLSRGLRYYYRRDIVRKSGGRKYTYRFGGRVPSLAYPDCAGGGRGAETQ", "assay": "DAPPL (digital affinity profiling via proximity ligation, sequencing)", "details": "10 mM Tris-HCl pH 7.5, 50 mM NaCl, 1 mM DTT, 4% glycerol, room temperature, 30 min; GST-TFs on glutathione beads, 16-mer random dsDNA library, 0.1% …; high values mean tight binding; double strand, one strand shown; scale: fold enrichment (6-mer frequency, TF over GST control)"}
{"sequence": "TCCCGT", "binding signal": 1.29}
{"sequence": "GTGCTA", "binding signal": 0.962}
{"sequence": "GCATTT", "binding signal": 1.25}
{"biological_target": "T4, ETV3L (UniProt Q6ZN32)", "T4 sequence": "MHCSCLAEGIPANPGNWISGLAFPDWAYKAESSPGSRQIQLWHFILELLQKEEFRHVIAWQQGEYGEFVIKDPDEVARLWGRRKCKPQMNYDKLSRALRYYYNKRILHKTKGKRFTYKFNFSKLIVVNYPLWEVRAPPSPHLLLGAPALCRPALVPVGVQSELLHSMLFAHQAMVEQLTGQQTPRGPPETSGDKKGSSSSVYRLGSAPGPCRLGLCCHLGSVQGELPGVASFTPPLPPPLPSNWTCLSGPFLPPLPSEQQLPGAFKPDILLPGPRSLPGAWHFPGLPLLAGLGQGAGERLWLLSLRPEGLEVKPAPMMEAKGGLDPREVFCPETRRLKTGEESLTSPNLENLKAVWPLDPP", "assay": "DAPPL (digital affinity profiling via proximity ligation, sequencing)", "details": "10 mM Tris-HCl pH 7.5, 50 mM NaCl, 1 mM DTT, 4% glycerol, room temperature, 30 min; GST-TFs on glutathione beads, 16-mer random dsDNA library, 0.1% …; high values mean tight binding; double strand, one strand shown; scale: fold enrichment (6-mer frequency, TF over GST control)"}
{"sequence": "TAATAT", "binding signal": 1.34}
{"sequence": "CATACA", "binding signal": 0.988}
{"sequence": "GGTTAT", "binding signal": 0.933}
{"sequence": "ACCCCC", "binding signal": 1.16}
{"sequence": "AGTACC", "binding signal": 0.982}
{"sequence": "CCCACT", "binding signal": 1.37}
{"sequence": "CATAGC", "binding signal": 0.964}
